The results in this text go back to article PMC3379943.

By UniProt entry, the sequences of proteins in these tests, tags left out. Residues count along the entry.
UniProt P98156, residues 28-873: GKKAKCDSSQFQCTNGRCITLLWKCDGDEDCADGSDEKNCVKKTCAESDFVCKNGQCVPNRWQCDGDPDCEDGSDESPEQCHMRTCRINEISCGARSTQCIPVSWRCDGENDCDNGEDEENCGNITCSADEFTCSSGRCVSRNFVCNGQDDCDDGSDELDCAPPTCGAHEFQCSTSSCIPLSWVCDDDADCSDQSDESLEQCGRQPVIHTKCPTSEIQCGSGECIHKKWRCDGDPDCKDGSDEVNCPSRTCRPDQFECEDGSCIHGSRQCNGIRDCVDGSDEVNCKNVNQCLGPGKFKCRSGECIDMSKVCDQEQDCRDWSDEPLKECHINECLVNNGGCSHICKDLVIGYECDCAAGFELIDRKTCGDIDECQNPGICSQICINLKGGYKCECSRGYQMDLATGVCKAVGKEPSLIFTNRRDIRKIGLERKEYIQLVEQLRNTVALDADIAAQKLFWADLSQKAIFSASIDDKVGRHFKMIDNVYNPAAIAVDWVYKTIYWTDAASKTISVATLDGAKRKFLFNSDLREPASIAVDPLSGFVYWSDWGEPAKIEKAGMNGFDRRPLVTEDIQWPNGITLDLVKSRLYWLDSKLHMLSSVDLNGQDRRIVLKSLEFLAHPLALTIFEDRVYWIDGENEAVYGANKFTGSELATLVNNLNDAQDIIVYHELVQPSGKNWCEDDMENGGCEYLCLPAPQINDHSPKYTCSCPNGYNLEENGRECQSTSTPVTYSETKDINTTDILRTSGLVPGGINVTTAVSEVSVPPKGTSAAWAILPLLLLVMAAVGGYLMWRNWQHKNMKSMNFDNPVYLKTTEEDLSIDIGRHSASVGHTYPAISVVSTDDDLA

No constants are given. Whether binding was seen depends on the method and setting. Binding seen in cells or lysates may run through a third protein. Some entries that bind do so weakly or less than the wild type. For some assays here: Sequences can lack the tags named with a protein.

Assay [1] has as its target full length VLDLR (HA-tagged on the C terminal) (UniProt P98155). The assay is described as follows: co-IP; COS7 cells transfected with APP-v5 and VLDLR-HA with empty vector, FE65-GFP or FE65-PTB2 domain-GFP; lysates immunoprecipitated with anti-HA or 5F3 (VLDLR) and probed with anti-V5 or 22C11 (APP), or with anti-V5 and probed with anti-HA; FE65 increased the co-precipitate, FE65 PTB2 decreased it against full length FE65.

Assay [2] has as its target T1, full length FE65-GFP (UniProt O00213).
T1 sequence: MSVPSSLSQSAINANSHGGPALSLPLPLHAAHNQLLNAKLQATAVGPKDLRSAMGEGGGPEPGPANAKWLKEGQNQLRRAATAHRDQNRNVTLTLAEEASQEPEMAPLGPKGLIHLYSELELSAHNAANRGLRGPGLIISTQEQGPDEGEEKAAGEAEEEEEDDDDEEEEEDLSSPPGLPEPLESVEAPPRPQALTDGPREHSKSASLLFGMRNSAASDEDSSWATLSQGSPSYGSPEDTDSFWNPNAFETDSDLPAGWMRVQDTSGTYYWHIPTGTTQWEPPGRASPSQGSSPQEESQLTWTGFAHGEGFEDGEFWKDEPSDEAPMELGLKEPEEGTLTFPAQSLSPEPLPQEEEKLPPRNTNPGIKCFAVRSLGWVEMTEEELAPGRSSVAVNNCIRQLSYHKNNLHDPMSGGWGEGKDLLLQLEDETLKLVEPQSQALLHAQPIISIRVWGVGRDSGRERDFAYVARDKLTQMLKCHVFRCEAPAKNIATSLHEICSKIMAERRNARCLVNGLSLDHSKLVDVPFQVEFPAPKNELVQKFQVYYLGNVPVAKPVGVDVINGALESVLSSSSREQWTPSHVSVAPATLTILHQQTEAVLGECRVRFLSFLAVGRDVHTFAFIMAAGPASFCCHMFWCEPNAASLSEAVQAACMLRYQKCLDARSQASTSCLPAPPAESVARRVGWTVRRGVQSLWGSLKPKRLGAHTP
The assay is described as follows: co-IP; COS7 cells co-transfected with VLDLR and FE65 constructs; cell lysates (100-200 ug) immunoprecipitated by the tag or 5F3 (anti-HA, anti-myc, 5F3, anti-GFP) and the precipitate probed for the other protein's tag.

The target in assay [3] is T2, FE65, endogenous in mouse brain (mouse (endogenous in brain)) (UniProt Q9QXJ1).
T2 sequence: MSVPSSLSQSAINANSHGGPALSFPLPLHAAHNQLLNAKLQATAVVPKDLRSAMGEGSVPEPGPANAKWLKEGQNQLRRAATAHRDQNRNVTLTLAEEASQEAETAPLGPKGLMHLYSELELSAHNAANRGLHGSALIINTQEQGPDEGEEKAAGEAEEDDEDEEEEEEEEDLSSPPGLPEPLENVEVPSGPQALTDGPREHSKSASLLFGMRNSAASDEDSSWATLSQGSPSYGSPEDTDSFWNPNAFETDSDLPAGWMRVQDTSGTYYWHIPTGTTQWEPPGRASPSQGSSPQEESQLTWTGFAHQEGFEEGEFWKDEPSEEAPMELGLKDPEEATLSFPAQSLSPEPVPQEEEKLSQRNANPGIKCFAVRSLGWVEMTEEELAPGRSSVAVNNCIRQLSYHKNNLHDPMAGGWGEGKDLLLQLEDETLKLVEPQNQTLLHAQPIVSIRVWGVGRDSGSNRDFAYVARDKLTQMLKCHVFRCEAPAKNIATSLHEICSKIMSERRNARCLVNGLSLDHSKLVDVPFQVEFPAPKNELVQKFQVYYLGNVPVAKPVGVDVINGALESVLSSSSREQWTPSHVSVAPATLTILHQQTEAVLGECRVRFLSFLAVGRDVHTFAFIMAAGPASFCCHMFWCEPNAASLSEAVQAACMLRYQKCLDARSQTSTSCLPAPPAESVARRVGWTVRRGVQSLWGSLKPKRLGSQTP
The assay is described as follows: co-IP; mouse whole brain lysates (100 ug), IP buffer 50 mM Tris-HCl pH 8.0, 0.15 M NaCl, 1% Nonidet P-40, overnight at 4°C with antibody (5F3, anti-FE65 or C1/6.1; IgG as control) and protein G-Sepharose; also lysates of 13 month old FE65 knockout mice against wild-type littermates (APP band with VLDLR decreased).

The target in assay [4] is T3, full length FE65 (myc-tagged on the C terminal) (UniProt O00213).
T3 sequence: T1 sequence
The assay is described as follows: co-IP; COS7 cells co-transfected with VLDLR and FE65 constructs; cell lysates (100-200 ug) immunoprecipitated by the tag or 5F3 (anti-HA, anti-myc, 5F3, anti-GFP) and the precipitate probed for the other protein's tag.

For assay [5], the target named is APP-v5 (UniProt P05067). The assay is described as follows: co-IP; COS7 cells transfected with APP-v5 and VLDLR-HA with empty vector, FE65-GFP or FE65-PTB2 domain-GFP; lysates immunoprecipitated with anti-HA or 5F3 (VLDLR) and probed with anti-V5 or 22C11 (APP), or with anti-V5 and probed with anti-HA; FE65 increased the co-precipitate, FE65 PTB2 decreased it against full length FE65.

Consider APP-v5 (from UniProt P05067 18-770), for which the binding entry in assay [1] was “binds”.

As for “full length VLDLR-myc (from UniProt P98155 28-873) (receptor)”, the binding entry in assay [2] is reported as “binds”.

Regarding “VLDLR, endogenous in mouse brain (from UniProt P98156 28-873) (receptor)”, the binding result in assay [3] is given as “binds”. In the case of “full length VLDLR (HA-tagged on the C terminal) (from UniProt P98155 28-873) (receptor)”, the binding result in assay [4] and in assay [5] was “binds” throughout.
